Primary screen of a compound library

Values are the deposited “Percent Effect”, in %.
The controls that fix the scale are not given in the record; negative values are as filed.
Compounds were drawn at random from those tested, without regard to their results.
Two or more numbers in one place are separate tests of the same structure; such repeats can differ widely.

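Viability assay of Plasmodium falciparum sporozoites; the read-out is not stated. The concentration is filed as 10 mM, unlikely as a test dose, so the dose is not known. Direction is inferred from retests: higher values go with lower viability. Strong results were mostly tested again. Of about 34,000 compounds tested this way, about 280 (0.84%) reached 50% or more in at least one test.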

{"smiles": "COCCNC(=O)Nc1ccc(F)c(C(N)=O)c1", "percent effect": -4.978}
{"smiles": "COCCCN(Cc1cnc(-c2cccs2)nc1)C1CCN(C)CC1", "percent effect": "27.38 and 32.73"}
{"smiles": "Cc1nc(C)n(CC2CCCN(CCC(=O)N3CCOCC3)C2)n1", "stereo": "stereo unspecified", "percent effect": 2.211}
{"smiles": "CC(C)S(=O)(=O)c1nnc(CCNC(=O)OC(C)(C)C)o1", "percent effect": 10.09}
{"smiles": "CCOc1ccc(CN2CCC(c3[nH]ncc3C)C2)cc1CO", "stereo": "stereo unspecified", "percent effect": -9.813}
{"smiles": "Cc1cnc(-c2nc(C3CCN(Cc4ccccc4C)CC3)no2)cn1", "percent effect": -0.9064}
{"smiles": "CC(C)N1CCC2(CCN(C(=O)c3cccnc3)CC2)C1.O=C(O)C(F)(F)F.O=C(O)C(F)(F)F", "percent effect": 1.371}
{"smiles": "CCCn1cc(-c2cc(-c3cc(CC)n[nH]3)c(C#N)c(N)n2)c(C)n1", "percent effect": 5.077}
{"smiles": "CCc1nsc(N2CCn3c(nnc3-c3ccccc3)C2)n1", "percent effect": 8.891}
{"smiles": "COc1ccsc1C(=O)Nc1cc(CN2CCOCC2)ccc1C", "percent effect": -2.131}
{"smiles": "OC1(Cn2ccc3ccncc32)CCN(Cc2ccccn2)CC1", "percent effect": -5.332}
{"smiles": "Cc1cnc2n(c1=O)CC(C(=O)NC1CC1)CS2", "stereo": "stereo unspecified", "percent effect": -1.063}
{"smiles": "O=C(COC1CCCCC1)NS(=O)(=O)c1ccc2c(c1)OCCCO2", "percent effect": -2.783}
{"smiles": "CO[C@@H]1CCN(C(=O)c2cc(C)on2)C[C@@H]1Cc1ccccc1", "percent effect": 11.47}
{"smiles": "O=C(NCC1OCCc2cn(CC3CC3)nc21)c1ccsc1", "stereo": "stereo unspecified", "percent effect": -3.687}
{"smiles": "Cc1cc(-c2cccnc2)nc(C2CCCN2S(C)(=O)=O)n1", "stereo": "stereo unspecified", "percent effect": -5.563}
{"smiles": "COc1ccc(CNC(C)c2ccccc2Cl)c(OC)c1OC.Cl", "stereo": "stereo unspecified", "percent effect": 5.147}
{"smiles": "CCOCCSc1nnc(Cc2ccccc2F)o1", "percent effect": -12.98}
{"smiles": "CC1(C(=O)N2CCOCC2)CN(Cc2ncc[nH]2)CCO1", "stereo": "stereo unspecified", "percent effect": 9.194}
{"smiles": "COc1ccc(S(=O)(=O)N2CCOC(C)(C(N)=O)C2)cc1", "stereo": "stereo unspecified", "percent effect": 3.337}
{"smiles": "Cc1ncsc1CN1CC[C@H](O)[C@@H](n2cnc3c(N)ncnc32)CC1", "percent effect": 12.22}
{"smiles": "COC1CCN(c2cc(C(C)C)nc3ccnn23)C1", "stereo": "stereo unspecified", "percent effect": 3.638}
{"smiles": "N#Cc1cnc(N2CCC3(CC2)OCCO3)nc1N", "percent effect": -7.731}
{"smiles": "CCc1cc(=O)[nH]c2nnc(SCC(=O)N3CCC(C)CC3)n12", "percent effect": "-15.61 and -12.37"}
{"smiles": "Cc1nc(C)n(CC2CCCCN2Cc2cscn2)n1", "stereo": "stereo unspecified", "percent effect": 2.23}
{"smiles": "CO[C@H]1CN(C(=O)c2cn3cc(C)ccc3n2)CC[C@@]12CCCO2", "percent effect": 6.975}
{"smiles": "COc1c(C)cnc(CN2CCC(N(C)S(C)(=O)=O)CC2)c1C", "percent effect": 3.921}
{"smiles": "CCOc1cccc2c1OCC(=O)N(c1ccc3c(c1)OCCO3)C2", "percent effect": "22.22 and 25.81"}
{"smiles": "CN1CCN(Cc2cn3c(n2)CN(Cc2cccc(F)c2)CC3)CC1.O=C(O)C(F)(F)F.O=C(O)C(F)(F)F.O=C(O)C(F)(F)F", "percent effect": -15.53}
{"smiles": "CN(C)C(=O)NCc1cc2n(n1)CCCN(CC1CCCNC1)C2", "stereo": "stereo unspecified", "percent effect": -3.421}
{"smiles": "CCN(C)c1ncnc2c1CCN(Cc1csc(C)n1)CC2.O=C(O)C(F)(F)F.O=C(O)C(F)(F)F", "percent effect": 6.857}
{"smiles": "O=C(O)C(F)(F)F.[H][C@@]12CCN(Cc3cccc(C#N)c3)[C@@]1([H])CC(=O)N2C", "percent effect": 14}
{"smiles": "O=C(O)C(F)(F)F.[H][C@]12CC[C@@]3(N=C(c4ccccc4)NC3=O)[C@@]1([H])CN(Cc1ccccc1)C2", "percent effect": 2.056}
{"smiles": "Nc1nnc(SCC(=O)c2cc3c(cc2Cl)NC(=O)C3)s1", "percent effect": -10.99}
{"smiles": "CNC(=O)C1CCCN(C(=O)OC)C1", "stereo": "stereo unspecified", "percent effect": 6.746}
{"smiles": "O=C(c1ccc[nH]1)N1CCN(CC2CCOc3ccccc3C2)CC1", "stereo": "stereo unspecified", "percent effect": 8.959}
{"smiles": "O=C1CSC(c2cccs2)c2cnn(C3CCCC3)c2N1", "stereo": "stereo unspecified", "percent effect": -6.14}
{"smiles": "COc1ccc(C[C@H]2CN(Cc3ccoc3)CC[C@H]2OC)cc1.O=C(O)C(F)(F)F", "percent effect": -4.88}
{"smiles": "COC(=O)CN(Cc1ccccc1C)C(=O)C1CCC1", "percent effect": -5.673}
{"smiles": "Cc1noc(C)c1-c1ccnc(C2CCNCC2)c1", "percent effect": 5.578}
{"smiles": "Clc1ccc(OCCN2CCN(CCn3cncn3)CC2)cc1", "percent effect": -10.47}
{"smiles": "Cc1n[nH]c(C)c1C1CCCN1C(=O)NCCSC(C)(C)C", "stereo": "stereo unspecified", "percent effect": -2.243}
{"smiles": "[H][C@@]12CS(=O)(=O)C[C@]1([H])N(Cc1ccoc1)CCN2Cc1ccncc1", "percent effect": 2.095}
{"smiles": "O=C(c1ccc(-n2cccn2)nc1)N1CCCN(c2cccnn2)CC1", "percent effect": -2.312}
{"smiles": "Cc1csc2c(C3CCN(CCOc4ccccc4F)CC3)nc(C)n12", "percent effect": 13.93}
{"smiles": "COCC(=O)N1Cc2nccn2CC(COc2cccnc2)C1", "stereo": "stereo unspecified", "percent effect": 23.95}
{"smiles": "CCOCCn1nc(C)cc1C(=O)N1CCOCC(CO)C1", "stereo": "stereo unspecified", "percent effect": 6.235}
{"smiles": "CN(Cc1ccc(F)cc1)CC1(O)CCN(C(=O)c2ccccc2)C1", "stereo": "stereo unspecified", "percent effect": -9.597}
{"smiles": "Cc1cc(C)n(CC2CCCN2CCS(C)(=O)=O)n1", "stereo": "stereo unspecified", "percent effect": 6.268}
{"smiles": "Cn1cnc(NC(=O)C2CC(=O)N(c3cccc(F)c3)C2)n1", "stereo": "stereo unspecified", "percent effect": 5.439}
{"smiles": "Cc1ccc(CCNC(=O)N2CCC(Cc3cnn(C)c3)C2)cn1", "stereo": "stereo unspecified", "percent effect": -7.252}
{"smiles": "[H][C@@]12OCCN(S(=O)(=O)C3CC3)[C@@]1([H])CC[C@H]2OCC(C)C", "percent effect": 8.263}
{"smiles": "COC(=O)c1cccn1C1CCN(C(=O)c2ccc(C)[nH]c2=O)CC1", "percent effect": 14.51}
{"smiles": "CCc1ccc(CN2CCNC(C(=O)N3CCN(C)CC3)C2)nc1", "stereo": "stereo unspecified", "percent effect": -4.386}

The first 5 entries again:

SMILES,percent effect
COCCNC(=O)Nc1ccc(F)c(C(N)=O)c1,-4.978%
COCCCN(Cc1cnc(-c2cccs2)nc1)C1CCN(C)CC1,27.38% and 32.73%
Cc1nc(C)n(CC2CCCN(CCC(=O)N3CCOCC3)C2)n1 (stereo unspecified),2.211%
CC(C)S(=O)(=O)c1nnc(CCNC(=O)OC(C)(C)C)o1,10.09%
CCOc1ccc(CN2CCC(c3[nH]ncc3C)C2)cc1CO (stereo unspecified),-9.813%

The values are deposited in ChEMBL (CHEMBL3988442, “University of Dundee, Small-Polar-MMV Screening Library” (2021)).